{"sequences": {"note": "Sequences of proteins named here, by UniProt entry; tags and fusion partners are left off. Residues count along the entry.", "UniProt Q9QUK6, residues 26-835": "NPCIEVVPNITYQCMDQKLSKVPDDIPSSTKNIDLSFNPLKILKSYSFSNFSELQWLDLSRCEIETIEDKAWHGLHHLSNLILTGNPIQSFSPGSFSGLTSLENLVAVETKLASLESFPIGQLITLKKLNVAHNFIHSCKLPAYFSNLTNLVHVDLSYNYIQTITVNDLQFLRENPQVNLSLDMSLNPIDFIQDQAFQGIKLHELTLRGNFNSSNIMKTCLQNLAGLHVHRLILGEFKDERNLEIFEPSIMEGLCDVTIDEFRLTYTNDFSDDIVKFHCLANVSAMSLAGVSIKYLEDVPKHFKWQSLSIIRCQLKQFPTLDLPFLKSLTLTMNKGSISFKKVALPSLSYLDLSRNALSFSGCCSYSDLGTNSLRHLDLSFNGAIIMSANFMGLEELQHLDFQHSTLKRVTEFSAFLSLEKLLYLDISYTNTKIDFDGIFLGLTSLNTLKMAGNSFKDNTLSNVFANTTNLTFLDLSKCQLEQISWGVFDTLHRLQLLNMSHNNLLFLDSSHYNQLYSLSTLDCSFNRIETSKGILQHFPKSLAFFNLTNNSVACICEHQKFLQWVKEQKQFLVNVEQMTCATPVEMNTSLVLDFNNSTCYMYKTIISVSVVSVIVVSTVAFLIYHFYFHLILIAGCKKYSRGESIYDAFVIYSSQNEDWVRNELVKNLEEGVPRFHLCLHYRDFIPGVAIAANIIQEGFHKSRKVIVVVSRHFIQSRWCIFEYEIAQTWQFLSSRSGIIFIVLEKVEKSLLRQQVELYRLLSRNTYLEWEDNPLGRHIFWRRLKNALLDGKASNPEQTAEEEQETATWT", "UniProt P63158": "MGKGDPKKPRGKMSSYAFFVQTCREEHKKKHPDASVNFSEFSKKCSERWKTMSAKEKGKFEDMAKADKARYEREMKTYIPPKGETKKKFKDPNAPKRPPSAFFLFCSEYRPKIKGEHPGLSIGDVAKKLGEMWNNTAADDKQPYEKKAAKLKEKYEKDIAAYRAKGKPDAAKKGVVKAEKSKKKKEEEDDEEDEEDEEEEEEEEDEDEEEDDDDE"}, "source": "paper PMC6277802", "target": "Toll-like receptor 4 (TLR4) (mouse (endogenous in primary chondrocytes)) (UniProt Q9QUK6)", "experiment": "co-IP; lysates of primary mouse chondrocytes treated with IL-1β with or without Nec-1; pre-cleared with IgG and Protein A+G agarose, primary antibody overnight at 4°C, Protein A+G agarose 3 h, washed five times with lysis buffer, western blot", "note": "No constants are given. Whether binding was seen depends on the method and setting. Binding seen in cells or lysates may run through a third protein. Some binding calls cover weakened binding; strength is not graded here.", "data": [{"substance": "high-mobility group box 1 (HMGB1) (from UniProt P63158 1-215)", "values": [{"measurement": "binding", "value": "binds"}]}]}
